We go through eight molecules from PMC4068158.

Sequences of proteins named here, by UniProt entry; tags and fusion partners are left off. Residues count along the entry.
UniProt Q9UNN5, residues 2-650: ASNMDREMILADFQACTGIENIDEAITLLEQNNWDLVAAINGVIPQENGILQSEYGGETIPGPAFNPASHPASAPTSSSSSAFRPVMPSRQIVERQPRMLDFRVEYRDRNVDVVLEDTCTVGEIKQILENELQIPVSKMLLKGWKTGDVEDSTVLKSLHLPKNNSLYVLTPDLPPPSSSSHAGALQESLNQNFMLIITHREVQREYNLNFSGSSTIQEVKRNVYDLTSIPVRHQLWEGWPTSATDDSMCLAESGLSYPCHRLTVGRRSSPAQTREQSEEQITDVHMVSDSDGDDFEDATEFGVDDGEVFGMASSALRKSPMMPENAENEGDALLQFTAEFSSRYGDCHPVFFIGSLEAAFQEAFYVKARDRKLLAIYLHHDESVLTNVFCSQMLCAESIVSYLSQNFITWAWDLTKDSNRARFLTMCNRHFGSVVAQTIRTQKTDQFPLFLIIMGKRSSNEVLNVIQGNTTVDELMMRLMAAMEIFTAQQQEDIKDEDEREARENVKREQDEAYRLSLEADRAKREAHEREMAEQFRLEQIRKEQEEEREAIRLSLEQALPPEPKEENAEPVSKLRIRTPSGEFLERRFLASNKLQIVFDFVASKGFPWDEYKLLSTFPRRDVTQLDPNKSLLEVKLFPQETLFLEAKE
UniProt Q9QY76: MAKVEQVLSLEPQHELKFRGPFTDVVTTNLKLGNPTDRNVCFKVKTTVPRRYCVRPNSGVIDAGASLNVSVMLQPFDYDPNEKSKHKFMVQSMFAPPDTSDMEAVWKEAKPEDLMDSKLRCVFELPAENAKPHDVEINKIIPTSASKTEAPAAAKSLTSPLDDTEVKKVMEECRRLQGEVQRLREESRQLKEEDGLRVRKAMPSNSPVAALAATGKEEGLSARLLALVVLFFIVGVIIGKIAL
UniProt O95292: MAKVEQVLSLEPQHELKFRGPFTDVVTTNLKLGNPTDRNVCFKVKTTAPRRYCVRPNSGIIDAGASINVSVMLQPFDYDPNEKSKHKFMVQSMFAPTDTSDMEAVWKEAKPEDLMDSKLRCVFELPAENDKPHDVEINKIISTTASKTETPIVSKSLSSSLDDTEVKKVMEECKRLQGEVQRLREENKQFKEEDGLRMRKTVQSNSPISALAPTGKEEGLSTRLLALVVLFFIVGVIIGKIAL
UniProt P61264: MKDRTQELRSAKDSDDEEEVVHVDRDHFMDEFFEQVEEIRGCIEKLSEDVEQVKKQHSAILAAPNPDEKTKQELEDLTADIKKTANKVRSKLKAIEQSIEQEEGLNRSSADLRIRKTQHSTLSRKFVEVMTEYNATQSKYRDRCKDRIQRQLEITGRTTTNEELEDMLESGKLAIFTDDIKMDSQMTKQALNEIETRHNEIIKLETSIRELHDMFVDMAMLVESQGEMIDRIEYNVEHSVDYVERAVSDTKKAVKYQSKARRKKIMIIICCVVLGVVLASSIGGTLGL
UniProt Q7L5D6: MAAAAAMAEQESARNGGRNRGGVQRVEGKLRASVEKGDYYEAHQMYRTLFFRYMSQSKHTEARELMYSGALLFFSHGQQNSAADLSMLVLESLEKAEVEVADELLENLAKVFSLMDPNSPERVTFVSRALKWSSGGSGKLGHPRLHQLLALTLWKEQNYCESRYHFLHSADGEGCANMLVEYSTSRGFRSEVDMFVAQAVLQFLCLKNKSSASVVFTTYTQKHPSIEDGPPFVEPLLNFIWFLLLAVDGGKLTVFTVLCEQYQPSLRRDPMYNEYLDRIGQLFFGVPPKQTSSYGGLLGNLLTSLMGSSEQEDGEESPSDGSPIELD
UniProt P46379: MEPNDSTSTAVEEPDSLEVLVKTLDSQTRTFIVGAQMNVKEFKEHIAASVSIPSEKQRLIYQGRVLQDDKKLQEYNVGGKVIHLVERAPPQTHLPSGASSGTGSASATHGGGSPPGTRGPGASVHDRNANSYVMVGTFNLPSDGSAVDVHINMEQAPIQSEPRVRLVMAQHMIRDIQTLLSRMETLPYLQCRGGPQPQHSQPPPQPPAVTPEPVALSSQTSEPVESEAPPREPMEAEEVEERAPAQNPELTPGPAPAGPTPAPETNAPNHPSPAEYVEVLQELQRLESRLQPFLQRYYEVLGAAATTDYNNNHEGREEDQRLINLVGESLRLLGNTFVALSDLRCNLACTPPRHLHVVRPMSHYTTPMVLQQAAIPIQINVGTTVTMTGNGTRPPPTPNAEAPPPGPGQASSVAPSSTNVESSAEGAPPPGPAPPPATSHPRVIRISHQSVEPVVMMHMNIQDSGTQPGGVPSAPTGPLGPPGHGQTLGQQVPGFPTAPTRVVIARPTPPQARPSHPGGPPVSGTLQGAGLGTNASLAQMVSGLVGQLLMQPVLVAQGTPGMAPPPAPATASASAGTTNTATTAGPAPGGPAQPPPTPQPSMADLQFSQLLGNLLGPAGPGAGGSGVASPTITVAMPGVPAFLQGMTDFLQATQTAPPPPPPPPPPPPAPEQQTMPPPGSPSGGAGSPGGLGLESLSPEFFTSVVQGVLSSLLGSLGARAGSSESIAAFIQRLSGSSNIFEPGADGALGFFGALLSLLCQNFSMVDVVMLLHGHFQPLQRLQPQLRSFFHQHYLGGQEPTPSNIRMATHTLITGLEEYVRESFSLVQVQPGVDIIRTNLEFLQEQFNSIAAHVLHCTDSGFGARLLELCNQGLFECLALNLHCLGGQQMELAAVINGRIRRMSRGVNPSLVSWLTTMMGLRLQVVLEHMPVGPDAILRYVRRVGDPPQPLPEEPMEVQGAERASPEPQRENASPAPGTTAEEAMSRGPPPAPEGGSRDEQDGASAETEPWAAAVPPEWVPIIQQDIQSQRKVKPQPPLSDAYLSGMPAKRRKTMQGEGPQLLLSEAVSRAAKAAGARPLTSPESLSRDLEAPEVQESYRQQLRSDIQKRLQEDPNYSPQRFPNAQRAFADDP

The target in assay [1] is Flag-FAF1 wild type (human) (UniProt Q9UNN5). The assay can be described thus: affinity purification with mass spectrometry; Flag-FAF1 immunoprecipitated with anti-Flag beads from U2OS cells, untreated or MG132 for 2 or 6 hr; untransfected cells as control.
The target in assay [2] is endogenous VAPB (mouse brain) (mouse (endogenous in brain)) (UniProt Q9QY76). As to the kind of experiment: affinity purification with mass spectrometry; endogenous VAPB immunoprecipitated from mouse brain extracts; uncoupled Protein A-beads as control.
In assay [3] the target is endogenous VAPB (human cells) (human (endogenous in U2OS, HeLa, SH-SY5Y)) (UniProt O95292). The assay can be described thus: affinity purification with mass spectrometry; SILAC; endogenous VAPB immunoprecipitated from mixed light and heavy U2OS lysates, MG132 for 2 or 6 hr against untreated.
The target of assay [4] is T1, Flag-VAPA wild type (human) (UniProt Q9P0L0).
T1 sequence: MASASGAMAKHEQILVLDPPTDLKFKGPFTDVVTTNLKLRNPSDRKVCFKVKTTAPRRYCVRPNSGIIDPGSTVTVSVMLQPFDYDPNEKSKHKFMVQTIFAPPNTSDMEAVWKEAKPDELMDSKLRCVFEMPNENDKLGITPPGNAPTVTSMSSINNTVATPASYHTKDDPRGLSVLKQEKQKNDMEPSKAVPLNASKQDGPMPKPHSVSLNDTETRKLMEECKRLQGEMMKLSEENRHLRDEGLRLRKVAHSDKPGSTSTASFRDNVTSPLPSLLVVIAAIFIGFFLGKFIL
The assay can be described thus: affinity purification with mass spectrometry; Flag-VAPA or Flag-VAPB immunoprecipitated with anti-Flag beads from U2OS cells; untransfected cells as control.

Assay [5] has as its target Flag-VAPB full length wild type (human) (UniProt O95292). Described as above.

Results are given in words; binding and its absence hold for the method and conditions named. In cells and extracts the contact can be indirect. A yes stands for co-enrichment or nearness to the bait. Other partners may have been found. For some of these results: Sequences can lack the tags named with a protein.

With “endogenous VAPB (human cells) (from UniProt O95292 1-243)”, the binding entry in assay [1] is “binds”. In the case of “endogenous syntaxin 1B (mouse brain) (from UniProt P61264 1-288)”, the binding entry in assay [2] is on record as “binds”. On to “endogenous GET4 (human cells) (from UniProt Q7L5D6 1-327)”, for which the binding entry in assay [3] and in assay [1] was “binds” each time.

“endogenous BAG6 (human cells) (from UniProt P46379 1-1132)”: the binding entry in assay [1] is “binds”.

B1: endogenous WDR44 (human cells) (protein, UniProt Q5JSH3 1-913)
chain: MASESDTEEFYDAPEDVHLGGGYPVGSPGKVGLSTFKETENTAYKVGNESPVQELKQDVSKKIIESIIEESQKVLQLEDDSLDSKGKELSDQATASPIVARTDLSNIPGLLAIDQVLPEESQKAESQNTFEETELELKKCFPSDETCEKPVDETTKLTQTSSTEQLNVLETETEVLNKEAVEVKGGGDVLEPVSSDSLSTKDFAAVEEVAPAKPPRHLTPEPDIVASTKKPVPARPPPPTNFPPPRPPPPSRPAPPPRKRKSELEFETLKTPDIDVPKENITSDSLLTASMASESTVKDSQPSLDLASATSGDKIVTAQENGKAPDGQTVAGEVMGPQRPRSNSGRELTDEEILASVMIKNLDTGEEIPLSLAEEKLPTGINPLTLHIMRRTKEYVSNDAAQSDDEEKLQSQPTDTDGGRLKQKTTQLKKFLGKSVKRAKHLAEEYGERAINKVKSVRDEVFHTDQDDPSSSDDEGMPYTRPVKFKAAHGFKGPYDFDQIKVVQDLSGEHMGAVWTMKFSHCGRLLASAGQDNVVRIWALKNAFDYFNNMRMKYNTEGRVSPSPSQESLSSSKSDTDTGVCSGTDEDPDDKNAPFRQRPFCKYKGHTADLLDLSWSKNYFLLSSSMDKTVRLWHISRRECLCCFQHIDFVTAIAFHPRDDRYFLSGSLDGKLRLWNIPDKKVALWNEVDGQTKLITAANFCQNGKYAVIGTYDGRCIFYDTEHLKYHTQIHVRSTRGRNKVGRKITGIEPLPGENKILVTSNDSRIRLYDLRDLSLSMKYKGYVNSSSQIKASFSHDFTYLVSGSEDKYVYIWSTYHDLSKFTSVRRDRNDFWEGIKAHNAVVTSAIFAPNPSLMLSLDVQSEKSEGNEKSEDAEVLDATPSGIMKTDNTEVLLSADFTGAIKVFVNKRKNVS
Turning to B1, the binding result in assay [4] and in assay [5] was “binds” each time.

B2: endogenous WDR44 (mouse brain) (protein, UniProt Q6NVE8 1-915)
chain: MASESDTEEFYDAPEDVHLGTGYPVGSPGKVGLLSFKEAENTANQAGNESPVQELRQDVSKKIIESIIEESQKVLQLEDDSLDSKGKGLSDEATAGPSVAGTEFSNIPGLLAIEHELQQDSEKAESQNVAEESELETQKCFPSDETCEKSEKTVDETDNLTEVSSGEQLDASGLEAETLNKEALEVKEGDVLDPASLDTLSTTDFAAVEEVAPAKPPRHLTPEPDIVASTKKPVPARPPPPTNFPPPRPPPPSRPAPPPRKKKSELEFEALKTPDLDVPKENITSDSLLTTNMASENTVRDSLPSLDLASATSGDKIVTAQENGKAPDVQTVAGEVMGPQRPRSNSGRELTDEEILASVMIKNLDTGEEIPLSLAEEKLPTGINPLTLHIMRRTKEYVSNDATQSDDEEKLQSQQTDTDGGRLKQKTTQLKKFLGKSVKRAKHLAEEYGERAINKVKSVRDEVFHTDQDDPSSSDDEGMPYTRPVKFKAAHGFKGPYDFDQIKVVQDLSGEHMGAVWTMKFSHCGRLLASAGQDNIVRIWALKNAFDYFNNMRMKYNTEGRVSPSPSQESLSSSKSDTDMGVCSGTDEDPDDKNAPFRQRPFCKYKGHTADLLDLSWSKNYFLLSSSMDKTVRLWHISRRECLCCFQHIDFVTAIAFHPRDDRYFLSGSLDGKLRLWNIPDKKVALWNEVDGQTKLITAANFCQNGKYAVIGTYDGRCIFYDTEHLKYHTQIHVRSTRGRNKVGRKITGIEPLPGENKILVTSNDSRIRLYDLRDLSLSMKYKGYVNSSSQIKASFSHDFTYLVSGSEDKYVYIWSTYHDLSKFTSVRRDRNDFWEGIKAHNAVVTSAIFAPNPSLMLSLDVQSEKLEGIDKYEDAEVLDSTSTGIVKTDNTEVLLSADFTGAIKVFINKRKTVS
As for B2, in assay [2], the binding result is given as “binds”.

B3: endogenous RAB3GAP2 (mouse brain) (protein, UniProt Q8BMG7 1-1366)
chain: MACSIVQFCSFQDLQSARDFLFPHLREETPGALKRDPSKTSSWEDDSWGAWEETEPREPEEEGNTSKTQKNSWLQECVLSLSPTSDLMVIAREQKAAFLVRKWKHGDKGKEEMQFAVGWSGSVSAEEGEYVTSALCIPLASQKRSSTGRPDWTCIVVGFTSGYVRFYTEGVLLLAQLLNEDKVLQLKCRTYEIPRHPGVTEQNEELSILYPAAIVTIDGFSLFQSLRACRNQVAKAAASGNENIQPPPLAYKKWGLQDIDTIIDHASVGIMTLSPFDQMKTASNIGGFNAAIKNSPPAMSQYITVGSSPFTGFFYALEGSTQPLLSHVALAVASKLTSALFSAASGWLGWKSKHEEDTVQKQKPKMEPATPLAVRFGLPDSRRHGESICLSPCNTLAAVTDDFGRVILLDVARGIAIRMWKGYRDAQVGWIQIVEDLHERVPEKGGFSPFGNTQGPSRVAQFLVIYAPRRGILEVWNTQQGPRVGAFNVGKHCRLLYPGYKIMGLNNVTSQSWQPQTYQICLVDPVSASVKAVNVPFHLALSDKKSERAKDLHLVKKLSALLRAKSPRPDSFETEIKELILDIKYPATKKQALESILASDRLSFSCLRNVTQTLMDTLKNQELESVDEGLLQFCASKLKLLHLYESVSQLNTLDFHSDTPFSDNDLAVLLRLDDKELLKLRALLEKYKQENTKATVRFSEDADRVLPVKTFLEYLEYEKDALSIRKIGEEECVALGSFFFWKCLHGKSSTEEMCHSLESAGLSPQQLLSLLLSVWLSKEKDILDKPQSVCCLHTMLSLLSKMKVAIDETWDSQSVSPWWQQMRMACIQSENSGAALLSAHVGHSVAAQMSSGATDKKFSQMELDADAEALTDSWEALSLDTEYWKLLLRQLEDCLILQTLLHSKLSPPAAKAPSLQSEPLPRLSVKKLLEGGKGGIADSVAKWIFKQDLSPELLKCANKERDVENPDEPREDLLHLAYEQFPCSLELDVLHAHCCWEYVVQWNKDPEEARFLVRSIEHLKQILNPHVQNGIALMMWNTFLVKRFSAATYLMDKVGKSPKDRLCRRDVGMSDTALTSFLGSCLELLQTSLEADISRDEVQVPVLDTEDAWLSVEGPISIVELALEQKPIHYPLVEHHSVLCSILYASMRFSLKSVKPLALFDSKGKNAFFKDLTSIQLLPSGEMDPNFISVRQQFLLKVVSAAVQAQHSKDKDPSAEAANTHWKDLNWPGLAVDLAHHLQVSDDVIRRHYVGELYSHGADLLGEEAIFQVQDKEVLASQLLVLTGQRLAHALFHTQTKEGMELLARLPPTLCTWLKAMNPQDLQNTGVPIAATAKLVHKVMELLPEKHGQYSLALHLIDAVEAMATL
In the case of B3, the binding entry in assay [2] is given as “binds”.

B4: endogenous RAB3GAP1 (mouse brain) (protein, UniProt Q80UJ7 1-981)
chain: MAADSEPESEVFEITDFTTASEWERFISKVEEVLNDWKLIGPSLGKPLEKGIFTSGTWEERSDEISFADFRFSVTHHYLVQESPDKERKDEELEDAIPQSMQDLLCMNNDFPPRAHCLVRWYGLREFVVIAPAAHSDAVLSESKCNLLLSSISIALGNTGCQVPLFVQIHHKWRRMYMGECQGPGVRTDFEMVHLRKVPSQYTHLSGLLDIFKSKIGCPLTPLPPVSIAIRLTYVLQDWQQYFWPQQPPDIDALVGGEVGGLEFGKLPFGACEDPISELHLATTWPHLTEGIIVDNDVYSDLDPVQAPHWSVRVRKADNPQCLLGDFVTEFLKICRRKESTDEILGRSTFEEEGREVADITHALSKLTEPAPVPIHKLSVSNMVHTAKKKIRKHRGEESPLNSDVLNTILLFLFPDAVSEKPLDGTTSIDNSIPAPEAGDYTLYNQFKSAPSDSLTYKLALCLCMINFYHGGLKGVAHLWQEFVLEMRFRWENNFLIPGLASGSPDLRCCLLHQKLQMLNCCIERKKARDEGKKTSLSDSTTSAYPGDAGKTGGQLGLDHLRDTEKEKGEVGKSWDSWSDSEEEFFECLSDTEDLKGNGQESGKKGGPKEMANLKPEGRLHQHGKLTLLHNGEPLYIPVTQEPAPMTEDLLEEQSEVLAKLGTSAEGAHLRARMQSACLLSDMESFKAANPGCFLEDFVRWYSPRDYIEEEVTDEKGNVVLKGELSARMKIPSNMWVEAWETAKPVPARRQRRLFDDTREAEKVLHYLAMQKPADLARHLLPCVIHAAVLKVKEEESLENIPSVKKIIKQIIAHSSKVLHFPNPEDKKLEEIILQITTVEAIIARARSLKAKFGTEKCEHEEEKEGLERFVSCLLEQPEVSVTGAGRGHAGRIIHKLFVNAQRAAAVALPEEELKKSGCPEERRQTLVSDFPPPAGRELILRATVPRPAPYSKALPQRMYSVLTKEDFRLAGAFSSDTSFF
Regarding B4, the binding entry in assay [2] is “binds”.
